One substance from patent EP0135429B1 (THE UNIVERSITY OF GEORGIA RESEARCH FOUNDATION, INC., priority 1983, dated 1992) can be followed below.

Strings that start with PEPTIDE1 are HELM notation: dots part the residues, brackets hold end groups and non-standard residues.

This data set in a line: general procedure: solution-phase peptide synthesis; EDC/HOBt/N-methylmorpholine. To be noted: late stage modification step, acetate.

The substance “PEPTIDE1{Y.[dA].G.[VEPhe(1R)].L}$$$$V2.0” had a step yield of 70.4%.
